The experiment deals with bovine serum albumin (bovine) (UniProt P02769). Put plainly: ELISA; Nunc MaxiSorp wells, blocked with 1% BSA in TMS; DC-SIGN-Fc 3 μg/mL in TMS (20 mM Tris-HCl pH 8.0, 150 mM NaCl, 1 mM CaCl2, 2 mM MgCl2) with 1% BSA, 1 h at 37°C; detected with goat anti-human HRP, OD at 450 nm. (ELISA stands for enzyme-linked immunosorbent assay.)

Sequences of proteins named here, by UniProt entry; tags and fusion partners are left off. A change or cut given only in a name is not applied to a line headed by its entry. Residues count along the entry.
UniProt P02769, residues 25-607: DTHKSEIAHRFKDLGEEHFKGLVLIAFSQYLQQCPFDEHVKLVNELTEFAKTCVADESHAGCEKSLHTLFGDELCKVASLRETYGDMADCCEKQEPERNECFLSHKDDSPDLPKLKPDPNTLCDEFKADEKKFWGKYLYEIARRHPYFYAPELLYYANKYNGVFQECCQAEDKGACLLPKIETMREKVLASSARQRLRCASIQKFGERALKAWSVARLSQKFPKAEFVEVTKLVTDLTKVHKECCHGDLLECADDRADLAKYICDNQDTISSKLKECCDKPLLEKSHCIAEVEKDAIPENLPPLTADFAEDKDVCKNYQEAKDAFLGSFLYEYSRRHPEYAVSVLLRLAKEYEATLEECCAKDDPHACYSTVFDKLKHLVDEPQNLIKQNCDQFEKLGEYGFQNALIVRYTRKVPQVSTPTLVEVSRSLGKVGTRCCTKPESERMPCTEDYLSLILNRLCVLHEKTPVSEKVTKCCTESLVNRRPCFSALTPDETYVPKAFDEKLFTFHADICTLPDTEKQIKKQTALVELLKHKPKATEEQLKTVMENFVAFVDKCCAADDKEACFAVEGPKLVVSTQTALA
UniProt Q9NNX6, residues 64-404: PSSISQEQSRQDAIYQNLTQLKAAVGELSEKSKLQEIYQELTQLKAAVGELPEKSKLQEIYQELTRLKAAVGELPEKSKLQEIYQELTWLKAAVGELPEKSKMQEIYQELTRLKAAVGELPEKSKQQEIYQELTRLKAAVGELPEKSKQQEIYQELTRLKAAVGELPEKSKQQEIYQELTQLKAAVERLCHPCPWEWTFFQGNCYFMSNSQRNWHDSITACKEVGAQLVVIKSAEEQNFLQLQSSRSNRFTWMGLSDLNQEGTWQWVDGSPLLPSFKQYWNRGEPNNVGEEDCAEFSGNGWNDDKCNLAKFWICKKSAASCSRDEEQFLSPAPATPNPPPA

No constants are given. Whether binding was seen depends on the method and setting.

In the case of “recombinant chimera protein DC-SIGN-Fc (from UniProt Q9NNX6 64-404) (Fc fusion)”, the binding result is recorded as “no binding (tested: 3 μg/mL DC-SIGN-Fc)”.

The values above are taken from paper PMC3754922.
